# The supplement of paper PMC5662767
# Structures can show the parent of a compound that is named as a salt. The list shows a part of the results. Part of the spread comes from offsets between plates or batches.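 The clonal Drosophila S2 line carries Smoothened with a circularly permuted GFP inserted in its cytoplasmic tail, which fluoresces once Hh-driven phosphorylation opens an inhibitory loop. Per-cell fluorescence was read by flow cytometry, scaled to Hh-stimulated untreated cells. Hits were groups of inhibitors sharing pathway targets that shifted fluorescence consistently, not single compounds.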
# Tested on: Drosophila S2 cl14 SmoIP sensor cells
# Experiment: normalized SmoIP GFP fluorescence (untreated unstimulated = 0%, untreated Hh-stimulated = 100%); higher = more Smo activation sensor fluorescence
# Details: stimulation: mock conditioned medium (-Hh); compound concentration: 15 uM; 24 h
row,SMILES,normalized SmoIP GFP fluorescence [%]
1,NCCc1c[nH]cn1 [histamine-2hcl],-0.775
2,COc1cc2nccc(Oc3ccc(NC(=O)NC4CC4)c(Cl)c3)c2cc1C(N)=O,48.5
3,NC(=O)c1cn(Cc2c(F)cccc2F)nn1 [Rufinamide],-1.88
4,Cc1ccc(N(CC2=NCCN2)c2cccc(O)c2)cc1 [phentolamine-mesilate],-9.85
5,CCN(c1cc(-c2ccc(CN3CCOCC3)cc2)cc(C(=O)NCc2c(C)cc(C)[nH]c2=O)c1C)C1CCOCC1,12.7
6,COc1ccc2cccc(CCNC(C)=O)c2c1 [Agomelatine],1.35
7,Cc1cccc(Nc2ccccc2C(=O)O)c1C [mefenamic-acid],-0.889
8,Cn1ncnc1[C@H]1c2n[nH]c(=O)c3cc(F)cc(c23)N[C@@H]1c1ccc(F)cc1,-1.74
9,CN1CCN(c2cccc(Nc3nc4c(-c5ccc(S(C)(=O)=O)cc5)cccn4n3)c2)CC1,14.4
10,c1ccc(CC2=NCCN2)cc1 [tolazoline-hcl],-4.01
11,COc1cc2nccc(Oc3ccc(NC(=O)Nc4cc(C)on4)c(Cl)c3)c2cc1OC,79.3
12,O=C(CCCCCCNC(=O)c1cnc(N(c2ccccc2)c2ccccc2)nc1)NO [rocilinostat-acy-1215],67.5
13,O=C1NC(=O)/C(=C/c2cccc(C(F)(F)F)c2)S1,25.9
14,CN(C)Cc1cccc(N/C(=C2\C(=O)Nc3cc(C(N)=O)ccc32)c2ccccc2)c1,25.3
15,CC(C)(C)OC(=O)N[C@H]1CCCCC/C=C\[C@@H]2C[C@@]2(C(=O)NS(=O)(=O)C2CC2)NC(=O)[C@@H]2C[C@@H](OC(=O)N3Cc4cccc(F)c4C3)CN2C1=O [Danoprevir],15.9

# Three structures already listed, sorted by number of heavy atoms, low to high:
row,SMILES,normalized SmoIP GFP fluorescence [%]
6,COc1ccc2cccc(CCNC(C)=O)c2c1 [Agomelatine],1.35
14,CN(C)Cc1cccc(N/C(=C2\C(=O)Nc3cc(C(N)=O)ccc32)c2ccccc2)c1,25.3
9,CN1CCN(c2cccc(Nc3nc4c(-c5ccc(S(C)(=O)=O)cc5)cccn4n3)c2)CC1,14.4
